Reference: the supplement of paper PMC10849652
The list shows a part of the results.

Chains of the proteins cited; added tags and fusions are not shown. Lines headed by an entry give the natural chain unless they say otherwise; changes in a name come on top.
UniProt Q99715: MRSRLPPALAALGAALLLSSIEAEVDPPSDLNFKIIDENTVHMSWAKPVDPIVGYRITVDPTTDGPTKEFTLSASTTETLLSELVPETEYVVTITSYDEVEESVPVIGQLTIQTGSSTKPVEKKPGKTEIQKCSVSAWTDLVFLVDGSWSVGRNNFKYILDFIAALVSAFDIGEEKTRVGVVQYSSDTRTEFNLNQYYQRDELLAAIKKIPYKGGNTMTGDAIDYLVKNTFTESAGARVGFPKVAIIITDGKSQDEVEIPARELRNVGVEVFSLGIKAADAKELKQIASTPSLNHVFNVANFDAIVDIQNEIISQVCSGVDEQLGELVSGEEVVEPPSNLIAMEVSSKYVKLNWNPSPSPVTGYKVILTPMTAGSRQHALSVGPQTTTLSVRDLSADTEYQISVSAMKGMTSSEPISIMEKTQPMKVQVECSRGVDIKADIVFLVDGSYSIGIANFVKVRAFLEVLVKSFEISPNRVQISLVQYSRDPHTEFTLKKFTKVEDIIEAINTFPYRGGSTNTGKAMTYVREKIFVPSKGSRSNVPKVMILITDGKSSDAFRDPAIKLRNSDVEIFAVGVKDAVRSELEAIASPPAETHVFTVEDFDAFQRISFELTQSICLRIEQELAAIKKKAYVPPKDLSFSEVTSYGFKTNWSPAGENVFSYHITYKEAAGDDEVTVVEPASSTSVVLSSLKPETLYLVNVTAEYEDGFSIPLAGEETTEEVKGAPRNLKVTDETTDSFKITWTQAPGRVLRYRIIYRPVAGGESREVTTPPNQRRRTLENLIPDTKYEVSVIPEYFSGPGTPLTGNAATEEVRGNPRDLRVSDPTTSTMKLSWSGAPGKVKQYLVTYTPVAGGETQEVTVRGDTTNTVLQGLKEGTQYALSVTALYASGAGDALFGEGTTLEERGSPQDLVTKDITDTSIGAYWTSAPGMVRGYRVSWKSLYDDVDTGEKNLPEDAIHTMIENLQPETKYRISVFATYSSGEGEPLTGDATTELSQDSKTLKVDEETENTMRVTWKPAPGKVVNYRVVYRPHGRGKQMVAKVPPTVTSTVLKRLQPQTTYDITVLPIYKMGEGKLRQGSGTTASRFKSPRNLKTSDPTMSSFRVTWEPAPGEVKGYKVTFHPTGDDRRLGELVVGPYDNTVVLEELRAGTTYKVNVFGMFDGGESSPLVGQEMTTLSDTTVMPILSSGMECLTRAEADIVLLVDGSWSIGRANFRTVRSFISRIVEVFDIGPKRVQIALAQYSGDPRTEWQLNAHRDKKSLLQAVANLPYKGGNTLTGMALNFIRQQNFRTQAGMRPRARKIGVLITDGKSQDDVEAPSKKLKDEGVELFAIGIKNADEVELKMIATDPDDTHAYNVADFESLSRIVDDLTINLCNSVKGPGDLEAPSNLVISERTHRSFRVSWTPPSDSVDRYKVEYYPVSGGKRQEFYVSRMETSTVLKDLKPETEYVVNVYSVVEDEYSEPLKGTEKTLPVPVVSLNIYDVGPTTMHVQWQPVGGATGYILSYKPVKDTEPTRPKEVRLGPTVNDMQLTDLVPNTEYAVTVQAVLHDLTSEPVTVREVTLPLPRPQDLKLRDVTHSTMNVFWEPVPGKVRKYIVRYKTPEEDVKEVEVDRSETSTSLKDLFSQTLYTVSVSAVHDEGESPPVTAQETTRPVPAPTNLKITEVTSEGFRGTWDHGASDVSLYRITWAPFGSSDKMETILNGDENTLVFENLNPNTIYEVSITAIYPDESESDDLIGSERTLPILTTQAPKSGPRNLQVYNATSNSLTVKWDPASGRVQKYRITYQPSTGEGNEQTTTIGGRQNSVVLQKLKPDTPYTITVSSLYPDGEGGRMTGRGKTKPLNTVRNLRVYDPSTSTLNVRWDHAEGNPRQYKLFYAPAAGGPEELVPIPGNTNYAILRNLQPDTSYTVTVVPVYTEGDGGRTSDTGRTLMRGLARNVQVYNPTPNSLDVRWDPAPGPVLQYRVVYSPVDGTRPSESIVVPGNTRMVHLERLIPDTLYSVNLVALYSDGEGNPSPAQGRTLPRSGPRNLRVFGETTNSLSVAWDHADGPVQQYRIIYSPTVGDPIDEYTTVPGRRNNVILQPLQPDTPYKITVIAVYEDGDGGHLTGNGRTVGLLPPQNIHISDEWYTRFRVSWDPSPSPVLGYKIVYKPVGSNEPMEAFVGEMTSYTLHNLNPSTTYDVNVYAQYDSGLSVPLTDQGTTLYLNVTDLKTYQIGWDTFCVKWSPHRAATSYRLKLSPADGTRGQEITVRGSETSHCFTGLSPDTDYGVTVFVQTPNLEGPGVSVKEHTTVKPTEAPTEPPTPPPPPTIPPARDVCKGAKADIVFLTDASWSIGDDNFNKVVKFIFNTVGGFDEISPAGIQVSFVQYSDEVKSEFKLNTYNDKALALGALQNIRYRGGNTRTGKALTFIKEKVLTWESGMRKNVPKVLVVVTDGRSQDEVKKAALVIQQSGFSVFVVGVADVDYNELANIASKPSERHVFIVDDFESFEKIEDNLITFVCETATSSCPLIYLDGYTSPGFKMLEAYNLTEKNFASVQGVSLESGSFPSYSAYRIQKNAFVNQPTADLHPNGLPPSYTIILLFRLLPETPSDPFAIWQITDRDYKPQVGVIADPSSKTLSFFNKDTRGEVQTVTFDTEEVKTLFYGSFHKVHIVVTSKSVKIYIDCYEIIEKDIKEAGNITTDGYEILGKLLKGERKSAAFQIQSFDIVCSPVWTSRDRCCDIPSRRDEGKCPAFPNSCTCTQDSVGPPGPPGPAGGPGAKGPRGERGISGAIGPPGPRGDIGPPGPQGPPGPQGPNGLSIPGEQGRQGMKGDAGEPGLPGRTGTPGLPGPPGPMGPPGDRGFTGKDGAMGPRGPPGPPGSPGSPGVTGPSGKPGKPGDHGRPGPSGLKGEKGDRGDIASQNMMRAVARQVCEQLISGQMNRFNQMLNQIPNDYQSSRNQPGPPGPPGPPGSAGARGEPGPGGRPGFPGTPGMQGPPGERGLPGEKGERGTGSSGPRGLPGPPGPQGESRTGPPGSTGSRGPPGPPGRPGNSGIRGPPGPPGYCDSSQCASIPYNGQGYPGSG
UniProt P56277: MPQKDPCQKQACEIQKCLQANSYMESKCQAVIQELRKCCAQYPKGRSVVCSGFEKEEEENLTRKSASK
UniProt P62633: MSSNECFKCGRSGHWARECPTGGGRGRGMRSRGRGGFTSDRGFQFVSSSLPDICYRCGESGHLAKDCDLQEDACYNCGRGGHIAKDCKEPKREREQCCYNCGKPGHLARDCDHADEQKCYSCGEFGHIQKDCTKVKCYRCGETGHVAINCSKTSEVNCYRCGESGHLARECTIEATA
UniProt Q86WW8: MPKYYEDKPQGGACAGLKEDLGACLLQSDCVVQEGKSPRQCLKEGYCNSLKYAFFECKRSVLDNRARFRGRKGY
UniProt Q14746: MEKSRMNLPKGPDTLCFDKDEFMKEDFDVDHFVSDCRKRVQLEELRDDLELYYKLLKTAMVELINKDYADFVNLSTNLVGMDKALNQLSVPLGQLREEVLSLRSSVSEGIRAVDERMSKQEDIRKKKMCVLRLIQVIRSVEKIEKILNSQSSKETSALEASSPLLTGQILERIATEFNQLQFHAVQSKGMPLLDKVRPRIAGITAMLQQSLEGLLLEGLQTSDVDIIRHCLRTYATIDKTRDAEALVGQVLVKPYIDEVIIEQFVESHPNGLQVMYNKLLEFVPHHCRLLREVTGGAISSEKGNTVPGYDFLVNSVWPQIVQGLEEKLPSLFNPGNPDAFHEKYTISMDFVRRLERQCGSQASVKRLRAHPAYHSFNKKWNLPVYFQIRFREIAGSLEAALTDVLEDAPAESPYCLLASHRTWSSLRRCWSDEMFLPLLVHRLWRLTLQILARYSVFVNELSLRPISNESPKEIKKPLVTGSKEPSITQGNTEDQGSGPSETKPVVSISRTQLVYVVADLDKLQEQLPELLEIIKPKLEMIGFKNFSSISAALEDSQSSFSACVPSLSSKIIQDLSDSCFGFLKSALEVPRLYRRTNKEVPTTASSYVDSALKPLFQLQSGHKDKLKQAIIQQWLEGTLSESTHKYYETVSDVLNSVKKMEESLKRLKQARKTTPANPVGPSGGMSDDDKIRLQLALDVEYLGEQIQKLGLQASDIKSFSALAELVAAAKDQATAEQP
UniProt Q8N9A8: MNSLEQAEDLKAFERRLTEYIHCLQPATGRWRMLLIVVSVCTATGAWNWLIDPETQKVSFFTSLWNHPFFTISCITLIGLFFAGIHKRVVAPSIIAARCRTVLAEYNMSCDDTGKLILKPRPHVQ
UniProt O75503: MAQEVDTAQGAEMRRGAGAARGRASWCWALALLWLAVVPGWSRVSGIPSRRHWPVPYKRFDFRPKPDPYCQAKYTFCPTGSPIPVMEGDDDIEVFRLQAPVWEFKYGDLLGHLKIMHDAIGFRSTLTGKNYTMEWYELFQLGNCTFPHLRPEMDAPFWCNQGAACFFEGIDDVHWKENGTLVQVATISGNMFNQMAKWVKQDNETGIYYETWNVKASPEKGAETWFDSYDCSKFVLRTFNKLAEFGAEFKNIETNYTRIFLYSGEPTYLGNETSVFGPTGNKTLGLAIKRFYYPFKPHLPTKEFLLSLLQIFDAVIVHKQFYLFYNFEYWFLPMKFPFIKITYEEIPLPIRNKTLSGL
UniProt Q92989: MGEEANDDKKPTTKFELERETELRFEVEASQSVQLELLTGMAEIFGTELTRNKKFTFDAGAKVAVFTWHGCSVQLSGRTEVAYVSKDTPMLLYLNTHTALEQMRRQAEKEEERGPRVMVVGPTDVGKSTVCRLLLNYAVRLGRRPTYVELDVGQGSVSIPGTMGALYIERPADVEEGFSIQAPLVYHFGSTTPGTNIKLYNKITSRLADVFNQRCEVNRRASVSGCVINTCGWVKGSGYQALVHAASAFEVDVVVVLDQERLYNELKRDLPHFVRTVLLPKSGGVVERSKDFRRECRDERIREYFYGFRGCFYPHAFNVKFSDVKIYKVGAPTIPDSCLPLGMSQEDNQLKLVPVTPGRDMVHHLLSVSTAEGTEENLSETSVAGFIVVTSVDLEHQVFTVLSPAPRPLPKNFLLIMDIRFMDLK
UniProt P51795: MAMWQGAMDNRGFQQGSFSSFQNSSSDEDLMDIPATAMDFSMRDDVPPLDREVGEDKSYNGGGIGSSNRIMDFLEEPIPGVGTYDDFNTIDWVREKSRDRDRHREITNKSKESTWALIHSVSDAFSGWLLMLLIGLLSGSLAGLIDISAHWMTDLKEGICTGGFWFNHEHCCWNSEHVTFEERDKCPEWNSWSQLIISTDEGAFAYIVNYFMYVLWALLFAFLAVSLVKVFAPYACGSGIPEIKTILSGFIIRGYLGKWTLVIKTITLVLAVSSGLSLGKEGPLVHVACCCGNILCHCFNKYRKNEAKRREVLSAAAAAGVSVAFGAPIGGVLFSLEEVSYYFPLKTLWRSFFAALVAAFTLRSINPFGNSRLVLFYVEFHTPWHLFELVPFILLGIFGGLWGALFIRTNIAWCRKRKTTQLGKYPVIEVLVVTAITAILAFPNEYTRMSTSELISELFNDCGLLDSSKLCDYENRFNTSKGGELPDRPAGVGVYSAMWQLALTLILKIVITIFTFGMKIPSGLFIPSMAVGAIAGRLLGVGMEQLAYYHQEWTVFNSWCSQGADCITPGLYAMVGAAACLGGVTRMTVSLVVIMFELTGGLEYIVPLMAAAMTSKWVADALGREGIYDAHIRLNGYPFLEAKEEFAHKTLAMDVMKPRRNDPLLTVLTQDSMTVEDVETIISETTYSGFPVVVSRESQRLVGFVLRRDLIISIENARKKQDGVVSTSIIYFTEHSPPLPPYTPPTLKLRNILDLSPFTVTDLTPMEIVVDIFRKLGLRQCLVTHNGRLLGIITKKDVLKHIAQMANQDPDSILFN
UniProt Q8IZR5: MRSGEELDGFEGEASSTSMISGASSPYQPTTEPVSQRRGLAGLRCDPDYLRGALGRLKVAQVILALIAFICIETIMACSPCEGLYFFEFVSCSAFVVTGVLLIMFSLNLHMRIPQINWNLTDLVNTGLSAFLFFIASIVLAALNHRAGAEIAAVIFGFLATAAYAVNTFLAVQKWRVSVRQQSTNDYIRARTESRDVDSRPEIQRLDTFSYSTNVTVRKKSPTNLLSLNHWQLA
UniProt Q8WUX9: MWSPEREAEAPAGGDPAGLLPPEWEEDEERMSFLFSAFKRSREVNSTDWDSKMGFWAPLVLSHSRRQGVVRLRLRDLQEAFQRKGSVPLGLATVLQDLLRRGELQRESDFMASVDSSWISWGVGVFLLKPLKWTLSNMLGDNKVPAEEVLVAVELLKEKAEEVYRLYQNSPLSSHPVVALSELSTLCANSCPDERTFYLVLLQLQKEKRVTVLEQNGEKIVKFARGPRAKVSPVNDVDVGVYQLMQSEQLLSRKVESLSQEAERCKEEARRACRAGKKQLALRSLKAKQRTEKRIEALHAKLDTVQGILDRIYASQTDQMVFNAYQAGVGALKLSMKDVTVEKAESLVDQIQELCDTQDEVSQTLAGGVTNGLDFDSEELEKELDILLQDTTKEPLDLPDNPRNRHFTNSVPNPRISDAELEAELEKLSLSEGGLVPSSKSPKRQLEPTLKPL

What was measured:
Assay in all cases: log2 fold change, soluble protein after heating vs DMSO (PISA); higher = thermal stabilisation; K562 cells, 10 uM, 30 min; active = over 0.2 and 3.5 SD of the protein, either way, in both replicates (recomputed)
[1] = compound: CC1=C(SC2=C1C(=N[C@H](C3=NN=C(N32)C)CC(=O)N)C4=CC=C(C=C4)Cl)C
Procedure, shortened: (§1)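 K562 cells (2×10^6 cells/mL) were treated with 10 μM compound for 30 min, and aliquots were heated for 3 min over 48°C-58°C. Pooled aliquots were extracted in PBS with 0.5% NP-40 at 4°C, and the supernatant after 21,000xg for 90 min was measured by TMTpro 16plex LC-MS/MS with channel sums equalised. Reported thermal stability, relative to control samples and from duplicates, is a log2 fold change.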

[2] = compound: Cc1sc2c(c1C)C(c1ccc(Cl)cc1)=N[C@@H](CC(=O)OC(C)(C)C)c1nnc(C)n1-2
Procedure, shortened: as §1

[3] = compound: c1ccc([C@@H]2C[C@H]2NC2CCNCC2)cc1
Procedure, shortened: as §1

[4] = compound: CC1=C2C(=CC=C1)N=C(N(C2=O)C3=CC=CC=C3C)CN4C=NC5=C(N=CN=C54)N
Procedure, shortened: as §1

[5] = compound: C1=CC=C(C=C1)[C@H](COC2=CC3=C(C=C2)NC(=O)N3)NC(=O)C4=CC=CN(C4=O)CC5=CC(=C(C=C5)F)F
Procedure, shortened: as §1

Measured: log2 fold change

CHPT1 (UniProt Q8WUD6)
inactive: [1] 0.003 | [2] -0.198 | [3] 0.11

COL12A1 (UniProt Q99715)
inactive: [2] -0.034

COL14A1 (UniProt Q05707)
inactive: [4] -0.128 | [2] 0.124

CLASRP (UniProt Q8N2M8)
inactive: [5] -0.081 | [1] 0.136 | [3] 0.14

CHST10 (UniProt O43529)
inactive: [5] 0.004 | [1] -0.064 | [2] -0.052 | [3] 0.044

CMYA5 (UniProt Q8N3K9)
inactive: [5] 0.053 | [1] 0.121 | [2] 0.216 | [3] 0.187

COA4 isoform 2 (UniProt Q9NYJ1)
inactive: [5] 0 | [1] 0.063 | [3] 0.034

COG6 (UniProt Q9Y2V7)
inactive: [1] -0.241 | [4] -0.044 | [2] 0.157 | [3] 0.069

CLEC11A (UniProt Q9Y240)
inactive: [2] 0.015

CMC4 (UniProt P56277)
inactive: [1] 0.019 | [3] -0.013

CLSTN1 (UniProt O94985)
inactive: [5] -0.046 | [1] 0.103 | [2] 0.058 | [3] 0.002

CKAP4 (UniProt Q07065)
inactive: [1] 0.045 | [4] 0.198 | [2] 0 | [3] -0.02

CHTOP isoform 3 (UniProt Q9Y3Y2)
inactive: [1] -0.297 | [4] -0.122 | [2] 0.036 | [3] -0.052

CHUK (UniProt O15111)
inactive: [1] -0.104 | [4] -0.137 | [2] 0.057 | [3] -0.093

CLIC6 (UniProt Q96NY7)
inactive: [5] -0.063 | [4] 0.137 | [2] 0.097

COG1 (UniProt Q8WTW3)
inactive: [1] -0.176 | [2] 0.378 | [3] -0.04

CNBP (UniProt P62633)
inactive: [5] 0.028 | [1] -0.028 | [3] 0.085

Random excerpt: 2 records from the list.
COG1 (UniProt Q8WTW3)
inactive: [1] -0.176 | [2] 0.378 | [3] -0.04

CHUK (UniProt O15111)
inactive: [1] -0.104 | [4] -0.137 | [2] 0.057 | [3] -0.093

(listing goes on)

COA5 (UniProt Q86WW8)
inactive: [1] -0.037 | [4] -0.038 | [3] -0.004

CKAP2 (UniProt Q8WWK9)
inactive: [1] -0.266 | [2] 0.116 | [3] 0.122

COG2 (UniProt Q14746)
inactive: [1] 0.063 | [2] 0.141 | [3] -0.004

CLCNKB (UniProt P51801)
inactive: [1] -0.019 | [4] -0.156 | [3] 0.101

COG4 (UniProt Q9H9E3)
inactive: [1] -0.246 | [4] -0.169 | [2] 0.102 | [3] -0.039

COG7 (UniProt P83436)
inactive: [1] -0.16 | [4] -0.074 | [3] -0.075

CNEP1R1 isoform 2 (UniProt Q8N9A8)
inactive: [1] 0.054 | [4] 0.098 | [2] 0.043 | [3] 0.114

CNN1 (UniProt P51911)
inactive: [1] 0.228 | [4] -0.063 | [2] -0.004 | [3] 0.156

CHST2 (UniProt Q9Y4C5)
inactive: [5] -0.033 | [1] 0.046 | [2] -0.025 | [3] 0.006

CIAO2B (UniProt Q9Y3D0)
inactive: [5] -0.018 | [1] -0.221 | [3] 0.267

CLN5 (UniProt O75503)
inactive: [5] -0.003 | [1] -0.007 | [2] 0.057 | [3] -0.296

CLP1 (UniProt Q92989)
inactive: [5] -0.075 | [1] 0.047 | [2] 0.141 | [3] 0.047

CLSTN3 isoform 2 (UniProt Q9BQT9)
inactive: [4] 0.008

CHURC1-FNTB (UniProt B4DL54)
inactive: [5] -0.007 | [4] 0.005 | [2] -0.009

CLCN5 isoform 2 (UniProt P51795)
inactive: [1] 0.028 | [4] -0.023 | [2] 0.024 | [3] -0.053

CMTM4 (UniProt Q8IZR5)
inactive: [5] 0.031 | [4] 0.081 | [2] -0.206

CHMP7 (UniProt Q8WUX9)
inactive: [5] -0.02 | [1] 0.009 | [2] -0.077 | [3] 0.107
